Data taken from patent US20120316326A1.
pKd: −log10 of the molar value. The exact form of at least one protein or probe is not confirmed.

target: cardiac troponin I (cTnI) (Homo sapiens) (UniProt P19429); experiment: SPR; conditions: Ni-NTA chip, protein immobilized (200 nM), aptamer 25-200 nM; purified recombinant protein; single-stranded DNA

Sequence	pKd
CAACTGTAATGTACCCTCCTCGATCACGCACCACTTGCAT [aptamer SEQ ID NO: 4]	8.49
CGCATGCCAAACGTTGCCTCATAGTTCCCTCCCCGTGTCC [aptamer SEQ ID NO: 6]	9.50
TCACACCCTCCCTCCCACATACCGCATACACTTTCTGATT [aptamer SEQ ID NO: 1]	8.47
CGTGCAGTACGCCAACCTTTCTCATGCGCTGCCCCTCTTA [aptamer SEQ ID NO: 5]	9.57
CCCGACCACGTCCCTGCCCTTTCCTAACCTGTTTGTTGAT [aptamer SEQ ID NO: 2]	8.95
ATGCGTTGAACCCTCCTGACCGTTTATCACATACTCCAGA [aptamer SEQ ID NO: 3]	8.94
